Laboratory results reported in the supplement of paper PMC12067093, “Discovery and optimisation of a covalent ligand for TRIM25 and its application to targeted protein ubiquitination” (Chemical Science, 2025).
This is one part of the list.

The chains behind the UniProt entries cited, without tags or fusion partners. Where a name states a change or a piece, a line headed by the entry shows the natural chain unless it says otherwise.
UniProt Q66K89: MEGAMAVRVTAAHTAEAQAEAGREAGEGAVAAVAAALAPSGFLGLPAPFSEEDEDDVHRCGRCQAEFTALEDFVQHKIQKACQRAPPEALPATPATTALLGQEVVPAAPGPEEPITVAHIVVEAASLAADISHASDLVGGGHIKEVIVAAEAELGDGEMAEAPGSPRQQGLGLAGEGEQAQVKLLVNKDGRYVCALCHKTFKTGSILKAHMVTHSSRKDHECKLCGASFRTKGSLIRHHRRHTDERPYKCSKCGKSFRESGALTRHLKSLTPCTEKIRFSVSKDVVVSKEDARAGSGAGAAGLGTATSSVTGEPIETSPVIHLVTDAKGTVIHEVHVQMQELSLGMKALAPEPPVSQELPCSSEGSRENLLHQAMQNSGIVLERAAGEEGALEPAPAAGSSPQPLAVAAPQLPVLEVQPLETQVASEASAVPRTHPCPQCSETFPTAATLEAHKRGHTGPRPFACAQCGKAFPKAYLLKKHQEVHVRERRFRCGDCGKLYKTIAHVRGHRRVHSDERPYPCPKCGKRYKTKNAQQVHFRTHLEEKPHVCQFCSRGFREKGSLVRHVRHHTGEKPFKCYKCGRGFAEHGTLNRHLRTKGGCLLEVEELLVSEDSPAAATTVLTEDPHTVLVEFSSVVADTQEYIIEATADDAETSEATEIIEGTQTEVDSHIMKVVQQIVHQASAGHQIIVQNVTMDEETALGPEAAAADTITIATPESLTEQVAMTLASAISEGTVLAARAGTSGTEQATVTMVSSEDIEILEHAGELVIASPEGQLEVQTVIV
UniProt P26358: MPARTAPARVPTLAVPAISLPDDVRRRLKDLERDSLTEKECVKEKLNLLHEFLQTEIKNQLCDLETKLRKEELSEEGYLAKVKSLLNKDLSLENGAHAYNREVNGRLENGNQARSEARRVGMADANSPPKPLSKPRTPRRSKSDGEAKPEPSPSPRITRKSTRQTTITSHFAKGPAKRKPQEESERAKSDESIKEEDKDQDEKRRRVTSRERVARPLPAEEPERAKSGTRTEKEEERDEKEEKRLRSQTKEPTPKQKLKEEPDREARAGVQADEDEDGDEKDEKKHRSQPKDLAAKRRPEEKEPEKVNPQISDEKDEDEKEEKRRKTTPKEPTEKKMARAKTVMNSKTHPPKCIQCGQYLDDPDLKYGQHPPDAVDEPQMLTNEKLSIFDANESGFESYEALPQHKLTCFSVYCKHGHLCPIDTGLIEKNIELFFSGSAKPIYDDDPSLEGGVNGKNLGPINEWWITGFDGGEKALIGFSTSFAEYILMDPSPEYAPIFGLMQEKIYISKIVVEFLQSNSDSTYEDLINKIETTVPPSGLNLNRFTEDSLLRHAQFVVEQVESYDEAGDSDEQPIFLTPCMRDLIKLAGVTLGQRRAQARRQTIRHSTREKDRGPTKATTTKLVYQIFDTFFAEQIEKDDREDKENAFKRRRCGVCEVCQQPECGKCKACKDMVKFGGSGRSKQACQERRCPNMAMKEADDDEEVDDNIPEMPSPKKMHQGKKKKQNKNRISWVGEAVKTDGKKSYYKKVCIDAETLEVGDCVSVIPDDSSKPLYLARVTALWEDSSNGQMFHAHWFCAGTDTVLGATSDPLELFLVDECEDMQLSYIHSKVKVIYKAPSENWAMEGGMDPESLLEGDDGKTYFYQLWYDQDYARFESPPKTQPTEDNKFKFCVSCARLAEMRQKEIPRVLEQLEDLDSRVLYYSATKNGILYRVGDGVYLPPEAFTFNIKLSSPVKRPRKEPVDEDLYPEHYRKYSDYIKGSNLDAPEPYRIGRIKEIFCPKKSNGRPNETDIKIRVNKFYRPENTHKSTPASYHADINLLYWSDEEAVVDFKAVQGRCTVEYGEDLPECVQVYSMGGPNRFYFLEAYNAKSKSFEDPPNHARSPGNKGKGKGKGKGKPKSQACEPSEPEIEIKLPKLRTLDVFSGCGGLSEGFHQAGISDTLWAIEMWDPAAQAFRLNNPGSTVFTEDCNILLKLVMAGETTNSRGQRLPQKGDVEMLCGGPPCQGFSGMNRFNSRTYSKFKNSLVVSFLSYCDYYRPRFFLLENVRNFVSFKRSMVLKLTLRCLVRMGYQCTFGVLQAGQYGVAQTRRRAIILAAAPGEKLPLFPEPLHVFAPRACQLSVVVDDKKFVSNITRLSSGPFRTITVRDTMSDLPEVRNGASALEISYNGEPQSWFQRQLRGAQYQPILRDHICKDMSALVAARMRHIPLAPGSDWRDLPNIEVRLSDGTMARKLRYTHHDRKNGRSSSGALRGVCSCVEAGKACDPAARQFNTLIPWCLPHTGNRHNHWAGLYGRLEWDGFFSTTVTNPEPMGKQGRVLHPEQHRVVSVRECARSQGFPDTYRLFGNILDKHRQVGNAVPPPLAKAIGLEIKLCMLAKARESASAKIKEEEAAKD
UniProt Q12882: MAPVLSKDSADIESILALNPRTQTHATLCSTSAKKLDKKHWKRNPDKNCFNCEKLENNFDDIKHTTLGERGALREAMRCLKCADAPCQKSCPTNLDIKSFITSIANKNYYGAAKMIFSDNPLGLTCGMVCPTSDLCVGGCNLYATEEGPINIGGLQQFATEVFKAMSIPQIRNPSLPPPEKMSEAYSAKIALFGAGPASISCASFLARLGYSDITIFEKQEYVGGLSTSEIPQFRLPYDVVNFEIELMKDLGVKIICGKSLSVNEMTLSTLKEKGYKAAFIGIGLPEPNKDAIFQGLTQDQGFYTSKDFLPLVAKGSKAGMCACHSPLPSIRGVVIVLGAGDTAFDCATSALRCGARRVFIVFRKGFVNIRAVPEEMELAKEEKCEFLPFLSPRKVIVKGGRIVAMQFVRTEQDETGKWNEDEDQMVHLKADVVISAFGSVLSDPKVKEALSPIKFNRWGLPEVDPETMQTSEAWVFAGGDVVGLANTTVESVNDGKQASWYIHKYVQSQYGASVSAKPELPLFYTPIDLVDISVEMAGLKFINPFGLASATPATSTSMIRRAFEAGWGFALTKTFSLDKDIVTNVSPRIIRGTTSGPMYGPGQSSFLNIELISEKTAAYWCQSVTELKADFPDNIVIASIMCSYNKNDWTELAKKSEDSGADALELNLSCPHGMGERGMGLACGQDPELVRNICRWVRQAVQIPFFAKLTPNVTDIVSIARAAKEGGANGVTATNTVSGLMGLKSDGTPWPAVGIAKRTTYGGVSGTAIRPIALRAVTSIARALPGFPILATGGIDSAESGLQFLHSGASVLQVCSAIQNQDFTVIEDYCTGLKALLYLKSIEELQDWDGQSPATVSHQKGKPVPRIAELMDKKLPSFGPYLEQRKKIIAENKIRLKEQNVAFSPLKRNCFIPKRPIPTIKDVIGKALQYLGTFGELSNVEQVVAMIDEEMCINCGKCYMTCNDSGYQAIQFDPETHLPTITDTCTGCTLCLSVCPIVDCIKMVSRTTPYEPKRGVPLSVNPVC
UniProt P60981: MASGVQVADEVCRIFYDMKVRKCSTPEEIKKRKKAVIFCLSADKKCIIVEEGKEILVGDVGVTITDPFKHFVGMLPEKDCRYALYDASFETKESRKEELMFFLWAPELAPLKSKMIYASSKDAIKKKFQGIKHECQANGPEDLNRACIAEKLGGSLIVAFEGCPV
UniProt Q6V1X1: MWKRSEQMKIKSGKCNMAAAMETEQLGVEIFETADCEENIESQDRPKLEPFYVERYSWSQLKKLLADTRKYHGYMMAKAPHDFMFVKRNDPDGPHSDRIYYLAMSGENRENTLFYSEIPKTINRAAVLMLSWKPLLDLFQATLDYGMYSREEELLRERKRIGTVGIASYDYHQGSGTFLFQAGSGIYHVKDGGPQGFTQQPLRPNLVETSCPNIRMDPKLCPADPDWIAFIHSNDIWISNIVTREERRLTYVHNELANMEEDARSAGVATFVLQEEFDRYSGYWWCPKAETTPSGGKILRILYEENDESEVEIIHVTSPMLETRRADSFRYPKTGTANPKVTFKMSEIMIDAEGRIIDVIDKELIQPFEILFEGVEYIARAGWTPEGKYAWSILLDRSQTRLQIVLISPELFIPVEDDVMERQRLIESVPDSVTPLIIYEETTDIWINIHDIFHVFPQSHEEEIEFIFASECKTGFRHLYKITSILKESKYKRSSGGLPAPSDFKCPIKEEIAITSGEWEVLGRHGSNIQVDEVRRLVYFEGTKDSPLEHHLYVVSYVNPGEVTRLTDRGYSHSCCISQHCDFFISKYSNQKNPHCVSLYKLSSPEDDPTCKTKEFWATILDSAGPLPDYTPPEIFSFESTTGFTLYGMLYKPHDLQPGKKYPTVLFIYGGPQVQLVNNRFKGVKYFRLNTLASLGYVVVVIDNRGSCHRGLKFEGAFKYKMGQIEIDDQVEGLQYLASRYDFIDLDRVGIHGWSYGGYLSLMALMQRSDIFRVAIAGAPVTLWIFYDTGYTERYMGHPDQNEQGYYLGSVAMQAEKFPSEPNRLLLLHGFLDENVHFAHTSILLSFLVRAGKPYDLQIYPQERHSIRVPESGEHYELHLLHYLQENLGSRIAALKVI
UniProt Q92608: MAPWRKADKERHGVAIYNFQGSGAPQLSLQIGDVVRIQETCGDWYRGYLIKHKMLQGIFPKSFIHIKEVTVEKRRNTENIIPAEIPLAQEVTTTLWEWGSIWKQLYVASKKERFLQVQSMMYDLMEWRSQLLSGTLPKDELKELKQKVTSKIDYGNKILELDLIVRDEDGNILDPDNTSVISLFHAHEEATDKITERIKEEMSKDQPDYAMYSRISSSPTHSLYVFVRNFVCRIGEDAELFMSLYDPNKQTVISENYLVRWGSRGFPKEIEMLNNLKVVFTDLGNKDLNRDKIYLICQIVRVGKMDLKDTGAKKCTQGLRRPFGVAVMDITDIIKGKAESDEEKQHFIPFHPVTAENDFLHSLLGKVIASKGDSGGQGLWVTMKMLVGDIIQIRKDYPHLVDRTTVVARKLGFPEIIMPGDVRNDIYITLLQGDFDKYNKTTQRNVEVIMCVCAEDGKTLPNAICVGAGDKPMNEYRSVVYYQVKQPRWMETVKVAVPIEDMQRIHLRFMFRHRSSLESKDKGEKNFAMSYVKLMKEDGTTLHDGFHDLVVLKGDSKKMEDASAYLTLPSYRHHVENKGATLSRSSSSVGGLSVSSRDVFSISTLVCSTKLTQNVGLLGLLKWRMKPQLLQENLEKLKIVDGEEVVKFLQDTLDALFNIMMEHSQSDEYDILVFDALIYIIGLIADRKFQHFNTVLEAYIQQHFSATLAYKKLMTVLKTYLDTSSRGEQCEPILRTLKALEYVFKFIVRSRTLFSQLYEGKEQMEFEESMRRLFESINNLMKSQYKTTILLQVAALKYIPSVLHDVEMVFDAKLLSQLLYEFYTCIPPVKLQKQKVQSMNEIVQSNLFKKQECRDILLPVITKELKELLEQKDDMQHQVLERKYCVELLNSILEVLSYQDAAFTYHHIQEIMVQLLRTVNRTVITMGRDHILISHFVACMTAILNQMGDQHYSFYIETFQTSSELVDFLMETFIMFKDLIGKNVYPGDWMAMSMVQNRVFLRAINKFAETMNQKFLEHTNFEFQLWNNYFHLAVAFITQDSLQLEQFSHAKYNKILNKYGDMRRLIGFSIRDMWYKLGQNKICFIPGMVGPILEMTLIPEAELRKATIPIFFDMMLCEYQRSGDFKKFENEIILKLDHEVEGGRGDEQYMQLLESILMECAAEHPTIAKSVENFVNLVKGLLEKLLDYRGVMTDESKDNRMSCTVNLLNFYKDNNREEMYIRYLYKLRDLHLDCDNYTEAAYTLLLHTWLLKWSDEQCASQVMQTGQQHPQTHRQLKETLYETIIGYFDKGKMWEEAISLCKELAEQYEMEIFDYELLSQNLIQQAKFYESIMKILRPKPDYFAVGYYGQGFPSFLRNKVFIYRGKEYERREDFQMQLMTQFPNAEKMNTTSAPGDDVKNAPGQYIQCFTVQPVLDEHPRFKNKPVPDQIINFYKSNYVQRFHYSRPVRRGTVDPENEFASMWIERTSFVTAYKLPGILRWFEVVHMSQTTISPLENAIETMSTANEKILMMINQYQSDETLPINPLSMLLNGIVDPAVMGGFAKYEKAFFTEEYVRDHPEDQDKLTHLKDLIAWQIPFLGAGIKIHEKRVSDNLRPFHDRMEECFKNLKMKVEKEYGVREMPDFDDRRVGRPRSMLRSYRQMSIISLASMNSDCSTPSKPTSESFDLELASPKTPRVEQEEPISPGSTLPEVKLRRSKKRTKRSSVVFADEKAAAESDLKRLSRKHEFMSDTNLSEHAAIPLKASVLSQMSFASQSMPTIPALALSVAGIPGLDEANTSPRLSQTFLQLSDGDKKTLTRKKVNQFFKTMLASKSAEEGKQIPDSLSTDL
UniProt O43598: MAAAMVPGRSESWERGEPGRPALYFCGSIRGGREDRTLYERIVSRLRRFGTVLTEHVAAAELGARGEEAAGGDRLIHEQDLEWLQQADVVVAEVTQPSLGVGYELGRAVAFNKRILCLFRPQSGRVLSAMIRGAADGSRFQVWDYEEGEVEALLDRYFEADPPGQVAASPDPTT

Compound: CC1Cc2ccccc2N1C(=O)C1CCCN(C1)C(=O)CCl (mixture of isomers) [TRIM25 ligand 11 (diastereomer mixture)]
Assay: probe-labelled cysteine peptide fold change vs DMSO (competition) (log2 fold change); higher = less target engagement (more negative = stronger competition)
Conditions: THP-1, incubation time: 4 h
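Further: competitive chemoproteomic profiling in live THP-1 cells with an iodoacetamide desthiobiotin (IA-DTB) probe, comparing probe-labelled peptide intensities in compound-treated cells against DMSO-treated controls.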

| Target | probe-labelled cysteine peptide fold change (10 µM) | probe-labelled cysteine peptide fold change (50 µM) |
| --- | --- | --- |
| E4F1_Q66K89_63_CQAEFTALEDFVQHK (UniProt Q66K89) | 0.024 | 0.103 |
| DRG2_P55039_270_KPNSVVISCGMK (UniProt P55039) | 0.117 | 0.165 |
| DNMT1_P26358_420_HGHLCPIDTGLIEK (UniProt P26358) | -0.0746 | -0.0779 |
| EAPP_Q56P03_210_AMFVMNCSINK (UniProt Q56P03) | 0.122 | 0.203 |
| DPYD_Q12882_82_CADAPCQK (UniProt Q12882) | 0.0269 | 0.145 |
| DSTN_P60981_163_LGGSLIVAFEGCPV (UniProt P60981) | -0.0526 | -0.225 |
| DOCK7_Q96N67_1710_SNHAEAAQCLVHSAALVAEYLSMLEDRK (UniProt Q96N67) | -0.0382 | -0.182 |
| DPP8_Q6V1X1_611_LSSPEDDPTCK (UniProt Q6V1X1) | 0.0995 | 0.0507 |
| DOCK2_Q92608_607_DVFSISTLVCSTK (UniProt Q92608) | 0.0442 | 0.0173 |
| DNPH1_O43598_117_RILCLFRPQSGR (UniProt O43598) | -0.313 | -0.00125 |
| DPYD_Q12882_671_KSEDSGADALELNLSCPHGMGER (UniProt Q12882) | 0.208 | 0.125 |
| DSTN_P60981_39_AVIFCLSADK (UniProt P60981) | -0.0558 | -0.00534 |
| DPF2_Q92785_53_LPFLDSQTGVAQSNCYIWMEK (UniProt Q92785) | -0.0577 | -0.19 |
| DOCK11_Q5JSL3_1906_RIPINCEQQINLKPIDVATDEIK (UniProt Q5JSL3) | 0.0355 | 0.00758 |

Whole records from above. Order of values: probe-labelled cysteine peptide fold change (10 µM) | probe-labelled cysteine peptide fold change (50 µM)
DNMT1_P26358_420_HGHLCPIDTGLIEK (UniProt P26358) as listed: -0.0746 | -0.0779
E4F1_Q66K89_63_CQAEFTALEDFVQHK (UniProt Q66K89) as listed: 0.024 | 0.103
